Results are given in words; binding and its absence hold for the method and conditions named. Some results given as binding are weak or reduced against the parent protein; the word gives no strength.
Target: collagen I (rat tail, Collaborative Biomedical Products) (rat) (UniProt P02454+P02466)
Assay: ELISA; solid-phase assay: 0.25 μg of collagens I, IV, XIII in 50 μl TBS coated on microtiter plates; GST-I domains soluble, diluted in TBS with 30 μg/ml BSA, 2 mM MgCl2, 0.05% Tween-20; room temperature; detected with anti-GST antibody; both purified

The chains behind the UniProt entries cited, without tags or fusion partners. Where a name states a change or a piece, a line headed by the entry shows the natural chain unless it says otherwise. Residues count along the entry.
UniProt P02454: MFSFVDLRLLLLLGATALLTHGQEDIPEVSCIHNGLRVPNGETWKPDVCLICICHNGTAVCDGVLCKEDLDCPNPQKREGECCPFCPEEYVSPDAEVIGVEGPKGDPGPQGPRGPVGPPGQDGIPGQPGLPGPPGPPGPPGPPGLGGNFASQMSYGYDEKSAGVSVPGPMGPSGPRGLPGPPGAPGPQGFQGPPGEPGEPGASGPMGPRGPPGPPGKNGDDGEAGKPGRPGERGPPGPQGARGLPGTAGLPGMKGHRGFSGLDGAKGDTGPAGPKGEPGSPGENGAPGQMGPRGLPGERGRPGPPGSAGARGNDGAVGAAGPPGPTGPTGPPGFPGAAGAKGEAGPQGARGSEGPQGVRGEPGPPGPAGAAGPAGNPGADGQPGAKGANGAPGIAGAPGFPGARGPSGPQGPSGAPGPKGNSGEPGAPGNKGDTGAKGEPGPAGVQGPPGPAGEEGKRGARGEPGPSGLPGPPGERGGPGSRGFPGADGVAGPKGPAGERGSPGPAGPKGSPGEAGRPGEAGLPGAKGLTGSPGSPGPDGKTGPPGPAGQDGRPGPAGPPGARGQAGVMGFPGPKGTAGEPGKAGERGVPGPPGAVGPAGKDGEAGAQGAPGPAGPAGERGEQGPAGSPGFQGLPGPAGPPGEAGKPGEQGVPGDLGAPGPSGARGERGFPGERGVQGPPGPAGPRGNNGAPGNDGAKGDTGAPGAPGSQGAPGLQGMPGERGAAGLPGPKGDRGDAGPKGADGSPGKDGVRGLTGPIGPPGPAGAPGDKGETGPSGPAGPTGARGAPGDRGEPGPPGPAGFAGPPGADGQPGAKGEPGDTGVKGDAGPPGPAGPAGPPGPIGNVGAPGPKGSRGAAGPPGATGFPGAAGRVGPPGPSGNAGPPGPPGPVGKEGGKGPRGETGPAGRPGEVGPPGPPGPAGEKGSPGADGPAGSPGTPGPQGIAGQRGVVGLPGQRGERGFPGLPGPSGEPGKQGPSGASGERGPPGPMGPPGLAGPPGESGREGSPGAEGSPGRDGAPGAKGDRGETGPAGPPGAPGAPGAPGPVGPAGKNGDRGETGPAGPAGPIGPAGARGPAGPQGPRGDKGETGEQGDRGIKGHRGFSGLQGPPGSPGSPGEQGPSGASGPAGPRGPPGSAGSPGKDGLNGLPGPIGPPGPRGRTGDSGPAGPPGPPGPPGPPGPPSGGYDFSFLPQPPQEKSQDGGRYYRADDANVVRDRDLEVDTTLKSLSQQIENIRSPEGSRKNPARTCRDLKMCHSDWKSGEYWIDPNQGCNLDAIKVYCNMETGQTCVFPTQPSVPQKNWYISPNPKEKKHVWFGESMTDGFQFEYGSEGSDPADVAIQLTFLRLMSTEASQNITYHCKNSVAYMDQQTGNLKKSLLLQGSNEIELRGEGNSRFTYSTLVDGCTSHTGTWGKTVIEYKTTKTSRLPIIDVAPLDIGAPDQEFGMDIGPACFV
UniProt P02466: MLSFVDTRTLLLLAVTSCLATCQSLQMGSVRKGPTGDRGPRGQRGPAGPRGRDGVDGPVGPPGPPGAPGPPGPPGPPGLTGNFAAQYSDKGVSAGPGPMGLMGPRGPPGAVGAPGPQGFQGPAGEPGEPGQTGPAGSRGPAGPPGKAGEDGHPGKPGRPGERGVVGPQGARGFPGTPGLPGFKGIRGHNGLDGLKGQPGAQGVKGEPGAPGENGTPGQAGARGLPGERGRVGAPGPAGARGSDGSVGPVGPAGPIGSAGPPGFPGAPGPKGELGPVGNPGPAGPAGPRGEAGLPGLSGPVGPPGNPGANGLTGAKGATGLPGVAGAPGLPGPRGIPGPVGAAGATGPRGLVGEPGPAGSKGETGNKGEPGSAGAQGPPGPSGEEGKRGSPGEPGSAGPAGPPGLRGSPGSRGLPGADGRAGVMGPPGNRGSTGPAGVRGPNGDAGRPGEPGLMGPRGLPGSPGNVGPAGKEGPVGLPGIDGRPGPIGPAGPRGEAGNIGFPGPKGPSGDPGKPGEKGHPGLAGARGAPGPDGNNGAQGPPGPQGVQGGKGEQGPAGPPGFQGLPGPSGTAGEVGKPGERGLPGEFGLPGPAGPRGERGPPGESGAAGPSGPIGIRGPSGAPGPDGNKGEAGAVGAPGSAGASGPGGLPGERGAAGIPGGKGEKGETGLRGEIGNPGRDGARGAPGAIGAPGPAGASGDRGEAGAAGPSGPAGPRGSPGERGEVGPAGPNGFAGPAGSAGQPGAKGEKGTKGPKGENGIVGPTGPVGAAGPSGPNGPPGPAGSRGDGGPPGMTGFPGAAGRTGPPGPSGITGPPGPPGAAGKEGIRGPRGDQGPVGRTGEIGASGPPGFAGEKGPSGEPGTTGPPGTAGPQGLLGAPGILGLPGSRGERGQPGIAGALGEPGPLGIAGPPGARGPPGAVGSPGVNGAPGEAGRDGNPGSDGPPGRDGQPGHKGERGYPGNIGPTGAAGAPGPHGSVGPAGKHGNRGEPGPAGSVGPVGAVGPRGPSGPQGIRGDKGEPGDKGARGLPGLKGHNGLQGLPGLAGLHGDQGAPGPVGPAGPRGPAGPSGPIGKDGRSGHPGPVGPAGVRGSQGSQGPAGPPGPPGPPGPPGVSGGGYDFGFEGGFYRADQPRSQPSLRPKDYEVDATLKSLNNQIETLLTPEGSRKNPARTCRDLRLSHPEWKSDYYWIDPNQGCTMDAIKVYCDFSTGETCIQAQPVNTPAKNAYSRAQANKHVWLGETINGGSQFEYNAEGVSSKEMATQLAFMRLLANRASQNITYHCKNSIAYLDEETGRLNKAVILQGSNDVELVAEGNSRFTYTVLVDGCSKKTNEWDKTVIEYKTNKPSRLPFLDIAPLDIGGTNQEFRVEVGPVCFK
UniProt P17301, residues 172-355: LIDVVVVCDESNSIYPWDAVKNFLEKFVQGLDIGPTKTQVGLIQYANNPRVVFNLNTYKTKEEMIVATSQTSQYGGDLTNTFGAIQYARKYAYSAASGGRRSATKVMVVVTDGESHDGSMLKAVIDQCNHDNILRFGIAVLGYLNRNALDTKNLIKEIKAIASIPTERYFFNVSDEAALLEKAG

binding: binds
Substance: GST-α2I fusion protein (recombinant I domain of human integrin α2) (from UniProt P17301 172-355) (domain or fragment)

From paper PMC7960628
